Measured values as given in article PMC4666372.
Like-named read-outs stand apart in the source and are kept apart here. Results are given in words; binding and its absence hold for the method and conditions named. Some results given as binding are weak or reduced against the parent protein; the word gives no strength.

Chains of the proteins cited; added tags and fusions are not shown. Lines headed by an entry give the natural chain unless they say otherwise; changes in a name come on top.
UniProt P06612: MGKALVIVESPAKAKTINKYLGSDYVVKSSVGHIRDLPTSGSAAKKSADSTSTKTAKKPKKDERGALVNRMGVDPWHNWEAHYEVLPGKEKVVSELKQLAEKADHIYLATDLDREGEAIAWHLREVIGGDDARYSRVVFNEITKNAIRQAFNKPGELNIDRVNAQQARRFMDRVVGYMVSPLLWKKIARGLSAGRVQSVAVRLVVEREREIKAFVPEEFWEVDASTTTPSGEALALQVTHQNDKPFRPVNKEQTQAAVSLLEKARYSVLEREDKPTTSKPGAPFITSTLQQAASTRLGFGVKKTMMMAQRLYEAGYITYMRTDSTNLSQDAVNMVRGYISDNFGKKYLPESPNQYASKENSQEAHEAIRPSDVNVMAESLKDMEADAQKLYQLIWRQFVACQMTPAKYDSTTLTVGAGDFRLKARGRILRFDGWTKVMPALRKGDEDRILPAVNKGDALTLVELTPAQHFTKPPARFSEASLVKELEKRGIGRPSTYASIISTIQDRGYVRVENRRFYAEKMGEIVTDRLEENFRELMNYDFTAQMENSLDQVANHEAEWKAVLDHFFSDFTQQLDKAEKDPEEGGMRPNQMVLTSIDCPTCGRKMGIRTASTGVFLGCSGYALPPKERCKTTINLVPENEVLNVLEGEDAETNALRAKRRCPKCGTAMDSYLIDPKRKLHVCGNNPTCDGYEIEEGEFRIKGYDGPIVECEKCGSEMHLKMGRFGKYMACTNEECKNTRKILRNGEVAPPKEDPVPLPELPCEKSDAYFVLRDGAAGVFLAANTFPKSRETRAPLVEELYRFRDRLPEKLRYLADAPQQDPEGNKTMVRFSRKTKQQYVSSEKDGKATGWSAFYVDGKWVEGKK

Legend:
[1] = biological target: PrS-TopAI (N-terminal domain of Protein S fused to TopAI, His-tagged) (E. coli) (UniProt Q2EEU2); assay: co-IP; purified PrS-TopAI and TopA, TopA67 or TopA14 at a molar ratio of 1:5 in buffer A (20 mM Tris-HCl pH 8.0, 150 mM NaCl), in the absence of DNA; anti-protein S antiserum, protein G agarose, 4°C; western blot with anti-His antibody; both purified
[2] = biological target: PrS-TopAI (N-terminal domain of Protein S fused to TopAI, His-tagged) (E. coli) (UniProt Q2EEU2); assay: as above; remark: listed apart in the source
[3] = biological target: DNA topoisomerase I (New England Biolab) (E. coli) (UniProt P06612); assay: native gel or EMSA; relaxation reaction of supercoiled pUC19 (0.6 μg) with 50 nM topoisomerase I and PrS-TopAI, 30 min 37°C, stopped by EDTA; 1.0% agarose gel; DNA stacked on the top of the gel; both purified

binding [1]	binding [3]	Substance	binding [2]
binds weakly	–	His-tagged TopA (topoisomerase I, full length) (from UniProt P06612 1-865) (enzyme)	no binding (condition: in the absence of plasmid DNA)
no binding	–	His-tagged TopA14 (C-terminal region of TopA, 14 kDa, residues 745-865) (from UniProt P06612 745-865) (domain or fragment)	–
–	binds	PrS-TopAI (N-terminal domain of Protein S fused to TopAI, His-tagged) (from UniProt Q2EEU2 1-85)	–
